Experimental data as given in PMC6148238.
These are yes or no findings as the source states them, for the method shown. Binding seen in cells or lysates may run through a third protein. Some results given as binding are weak or reduced against the parent protein; the word gives no strength. For part of these data: Where a sequence is shown, tags or fusion partners need not be part of it. Values belong to the binder of their own block, whether it stands above or below them.

Columns and labels:
[1] = target: T1, Rab3A (human (endogenous in Hep3B)) (UniProt P20336); test: co-IP; endogenous proteins in Hep3B cells with or without OGT knockdown; Protein G IP Kit; Western blot
T1 sequence: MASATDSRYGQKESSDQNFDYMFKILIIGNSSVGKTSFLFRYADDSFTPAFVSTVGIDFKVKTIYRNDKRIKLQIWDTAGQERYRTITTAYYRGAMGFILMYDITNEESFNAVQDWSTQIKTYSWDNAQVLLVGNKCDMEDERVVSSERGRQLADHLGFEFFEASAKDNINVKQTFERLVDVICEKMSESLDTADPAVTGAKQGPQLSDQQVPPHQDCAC

Rab3A-flag = target: T2, Rab3A-flag (UniProt P20336); test: co-IP; transfected OGT-myc and Rab3A-flag in Hep3B cells; Protein G IP Kit; Western blot
T2 sequence: T1 sequence

GST-Rab3A = target: T3, GST-Rab3A (UniProt P20336); test: pull-down; GST-Rab3A on beads (MagneGST pull-down system), [35S]Met-labelled in vitro translated OGT; SDS-PAGE and autoradiography; only the target purified
T3 sequence: T1 sequence

binding [1]: binds
B1: O-GlcNAc transferase (OGT) (enzyme, UniProt O15294 1-1046)
chain: MASSVGNVADSTEPTKRMLSFQGLAELAHREYQAGDFEAAERHCMQLWRQEPDNTGVLLLLSSIHFQCRRLDRSAHFSTLAIKQNPLLAEAYSNLGNVYKERGQLQEAIEHYRHALRLKPDFIDGYINLAAALVAAGDMEGAVQAYVSALQYNPDLYCVRSDLGNLLKALGRLEEAKACYLKAIETQPNFAVAWSNLGCVFNAQGEIWLAIHHFEKAVTLDPNFLDAYINLGNVLKEARIFDRAVAAYLRALSLSPNHAVVHGNLACVYYEQGLIDLAIDTYRRAIELQPHFPDAYCNLANALKEKGSVAEAEDCYNTALRLCPTHADSLNNLANIKREQGNIEEAVRLYRKALEVFPEFAAAHSNLASVLQQQGKLQEALMHYKEAIRISPTFADAYSNMGNTLKEMQDVQGALQCYTRAIQINPAFADAHSNLASIHKDSGNIPEAIASYRTALKLKPDFPDAYCNLAHCLQIVCDWTDYDERMKKLVSIVADQLEKNRLPSVHPHHSMLYPLSHGFRKAIAERHGNLCLDKINVLHKPPYEHPKDLKLSDGRLRVGYVSSDFGNHPTSHLMQSIPGMHNPDKFEVFCYALSPDDGTNFRVKVMAEANHFIDLSQIPCNGKAADRIHQDGIHILVNMNGYTKGARNELFALRPAPIQAMWLGYPGTSGALFMDYIITDQETSPAEVAEQYSEKLAYMPHTFFIGDHANMFPHLKKKAVIDFKSNGHIYDNRIVLNGIDLKAFLDSLPDVKIVKMKCPDGGDNADSSNTALNMPVIPMNTIAEAVIEMINRGQIQITINGFSISNGLATTQINNKAATGEEVPRTIIVTTRSQYGLPEDAIVYCNFNQLYKIDPSTLQMWANILKRVPNSVLWLLRFPAVGEPNIQQYAQNMGLPQNRIIFSPVAPKEEHVRRGQLADVCLDTPLCNGHTTGMDVLWAGTPMVTMPGETLASRVAASQLTCLGCLELIAKNRQEYEDIAVKLGTDLEYLKKVRGKVWKQRISSPLFNTKQYTMELERLYLQMWEHYAAGNKPDHMIKPVEVTESA

binding (Rab3A-flag): binds
B2: OGT-myc (enzyme, UniProt O15294 1-1046)
chain: B1 chain

binding (GST-Rab3A): binds
B3: OGT protein synthesized in TNT reaction (enzyme, UniProt O15294 1-1046)
chain: B1 chain
modifications: [35S]methionine label
